{
  "sequences": {"note": "Amino acid sequences for entries named in this document (tags omitted). A change or cut given only in a name is not applied to a line headed by its entry.", "UniProt P61169": "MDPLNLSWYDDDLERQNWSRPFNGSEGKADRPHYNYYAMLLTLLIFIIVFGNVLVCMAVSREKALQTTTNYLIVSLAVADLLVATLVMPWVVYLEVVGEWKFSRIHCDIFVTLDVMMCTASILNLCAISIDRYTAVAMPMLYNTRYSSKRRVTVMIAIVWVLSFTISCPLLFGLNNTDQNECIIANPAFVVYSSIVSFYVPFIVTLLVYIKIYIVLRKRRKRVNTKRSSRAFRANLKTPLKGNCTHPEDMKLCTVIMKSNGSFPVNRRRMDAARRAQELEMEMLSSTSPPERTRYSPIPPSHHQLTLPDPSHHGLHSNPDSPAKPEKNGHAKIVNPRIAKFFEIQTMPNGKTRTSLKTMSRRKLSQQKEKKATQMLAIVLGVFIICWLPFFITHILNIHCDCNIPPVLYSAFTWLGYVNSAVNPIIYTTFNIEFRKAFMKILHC", "UniProt P61168": "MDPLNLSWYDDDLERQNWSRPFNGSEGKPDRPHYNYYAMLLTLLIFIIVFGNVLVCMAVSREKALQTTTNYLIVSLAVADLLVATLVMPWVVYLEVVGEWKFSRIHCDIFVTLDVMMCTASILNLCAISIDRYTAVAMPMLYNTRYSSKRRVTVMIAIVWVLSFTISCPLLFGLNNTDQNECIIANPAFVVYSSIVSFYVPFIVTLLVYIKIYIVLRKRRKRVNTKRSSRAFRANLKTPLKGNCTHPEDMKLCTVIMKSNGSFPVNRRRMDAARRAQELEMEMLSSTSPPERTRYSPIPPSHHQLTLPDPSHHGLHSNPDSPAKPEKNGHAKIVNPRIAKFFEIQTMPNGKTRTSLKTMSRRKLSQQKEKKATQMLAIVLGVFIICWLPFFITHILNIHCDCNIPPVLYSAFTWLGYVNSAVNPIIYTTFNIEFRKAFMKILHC", "UniProt O08725": "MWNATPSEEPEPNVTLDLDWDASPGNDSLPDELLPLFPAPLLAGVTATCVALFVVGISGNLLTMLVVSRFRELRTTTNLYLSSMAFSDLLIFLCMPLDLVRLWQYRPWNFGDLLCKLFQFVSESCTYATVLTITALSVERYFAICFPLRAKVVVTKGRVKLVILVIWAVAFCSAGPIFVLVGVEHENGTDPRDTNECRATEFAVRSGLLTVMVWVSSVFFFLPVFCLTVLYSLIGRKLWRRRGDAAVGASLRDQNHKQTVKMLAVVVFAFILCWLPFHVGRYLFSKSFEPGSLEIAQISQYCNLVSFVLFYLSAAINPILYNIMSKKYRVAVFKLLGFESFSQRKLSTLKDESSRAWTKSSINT", "UniProt Q99P50": "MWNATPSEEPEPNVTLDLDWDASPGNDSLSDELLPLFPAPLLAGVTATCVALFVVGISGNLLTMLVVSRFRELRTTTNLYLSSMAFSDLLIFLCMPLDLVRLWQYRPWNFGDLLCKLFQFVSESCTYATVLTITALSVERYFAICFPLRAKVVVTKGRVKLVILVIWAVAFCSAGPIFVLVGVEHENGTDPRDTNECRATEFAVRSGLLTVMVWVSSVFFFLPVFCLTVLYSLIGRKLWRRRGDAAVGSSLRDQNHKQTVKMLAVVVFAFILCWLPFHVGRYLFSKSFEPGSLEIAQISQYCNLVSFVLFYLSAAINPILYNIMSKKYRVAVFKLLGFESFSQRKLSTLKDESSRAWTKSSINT"},
  "source": "paper PMC10374575",
  "key": {"[1]": {"target": "D2R-EYFP (UniProt P61169)", "assay": "FRET or BRET; FRET; D2R-EYFP and GHS-R1a-ECFP cotransfected into PC-12 cells; Nikon A1R confocal microscope, FRET ratio imaging"}, "[2]": {"target": "Dopamine type 2 receptor (D2R), endogenous in PC-12 cells (rat (endogenous in PC-12)) (UniProt P61169)", "assay": "proximity ligation; PC-12 cells fixed with 4% paraformaldehyde; mouse anti-GHS-R1a and rabbit anti-D2R, Duolink II PLA probes; untreated cells and cells treated with 2 mM MPP+ for 24 h (fewer PLA signals)"}, "[3]": {"target": "Dopamine type 2 receptor (D2R), endogenous in mouse substantia nigra (mouse (endogenous in brain slices)) (UniProt P61168)", "assay": "proximity ligation; mouse brain slices (substantia nigra); mouse anti-GHS-R1a and rabbit anti-D2R, Duolink II PLA probes; wild-type mice and MPTP-treated mice (fewer PLA signals)"}},
  "note": "Results are given in words; binding and its absence hold for the method and conditions named. Binding seen in cells or lysates may run through a third protein. Some results given as binding are weak or reduced against the parent protein; the word gives no strength.",
  "data": [
    {"substance": "GHS-R1a-ECFP (from UniProt O08725 1-364) (receptor)", "values": [
      {"measurement": "binding", "setting": "[1]", "result": "binds"}
    ]},
    {"substance": "Growth hormone secretagogue receptor 1a (GHS-R1a), endogenous in PC-12 cells (from UniProt O08725 1-364)", "values": [
      {"measurement": "binding", "setting": "[2]", "result": "binds"}
    ]},
    {"substance": "Growth hormone secretagogue receptor 1a (GHS-R1a), endogenous in mouse substantia nigra (from UniProt Q99P50 1-364)", "values": [
      {"measurement": "binding", "setting": "[3]", "result": "binds"}
    ]}
  ]
}
